Data as given in PubChem BioAssay AID1259308 (NCATS, 2017)

Assay: 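Genes whose loss raises luciferase production in HEK293 cells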 (primary screen)
System: human HEK293 embryonic kidney cells stably expressing firefly luciferase (HEK-CMV-Luc2-Hygro)
Reagent: single siRNA against human genes, 0.8 pmol siRNA per well
Timing: 72 h
Measured: 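Luciferase light (ONE-Glo) measured on one replicate plate set and viability (CellTiter-Glo) on the other, scaled to a negative control siRNA, with robust z-scores and luciferase per cell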
Scale: total luciferase, z-score: higher = more reporter protein produced
Active means: 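An siRNA counts as active if its total luciferase robust z-score exceeds 3; genes with two or more such siRNAs out of three were retested with fresh siRNAs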
Calls: active = raised luciferase; inactive = no rise
Here is one part, drawn at random, of about 59,000 reagents. About 1,510 of all reagents (2.6%) were called active. 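Calls use total luciferase alone and ignore viability, so some active siRNAs may act by altering cell number.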 Unmarked entries are inactive. The numbers tell different reagents against one gene apart. Not all columns of the deposit are shown.

no.	target	reagent no.	total luciferase, z-score
1	ZAR1 (zygote arrest 1)	1	0.709
2	ZAR1 (zygote arrest 1)	2	-1.48
3	ZAR1 (zygote arrest 1)	3	0.385
4	GDNF (glial cell derived neurotrophic factor)	1	0.438
5	GDNF (glial cell derived neurotrophic factor)	2	0.205
6	GDNF (glial cell derived neurotrophic factor)	3	0.709
7	PEA15-AS1 (PEA15 antisense RNA 1)	1	2.67
8	PEA15-AS1 (PEA15 antisense RNA 1)	2	0.21
9	PEA15-AS1 (PEA15 antisense RNA 1)	3	-2.39
10	PRKG2 (protein kinase cGMP-dependent 2)	1	-1.08
11	PRKG2 (protein kinase cGMP-dependent 2)	2	0.11
12	PRKG2 (protein kinase cGMP-dependent 2)	3	-0.294
13	CCNYL3 (cyclin Y like 3 (pseudogene))	1	1.56
14	CCNYL3 (cyclin Y like 3 (pseudogene))	2	-0.453
15	CCNYL3 (cyclin Y like 3 (pseudogene))	3	0.14
16	EGR4 (early growth response 4)	1	0.0546
17	EGR4 (early growth response 4)	2	0.492
18	EGR4 (early growth response 4)	3	-0.678
19	C18orf54 (chromosome 18 open reading frame 54)	1	0.0706
20	C18orf54 (chromosome 18 open reading frame 54)	2	-0.557
21	C18orf54 (chromosome 18 open reading frame 54)	3	-0.146
22	SPC25 (SPC25 component of NDC80 kinetochore complex)	1	-1.19
23	SPC25 (SPC25 component of NDC80 kinetochore complex)	2	-0.241
24	SPC25 (SPC25 component of NDC80 kinetochore complex)	3	0.304
25	ODAD2 (outer dynein arm docking complex subunit 2)	1	-0.522
26	ODAD2 (outer dynein arm docking complex subunit 2)	2	-0.475
27	ODAD2 (outer dynein arm docking complex subunit 2)	3	-0.654
28	P3H4 (prolyl 3-hydroxylase family member 4 (inactive))	1	1.43
29	P3H4 (prolyl 3-hydroxylase family member 4 (inactive))	2	-1.21
30	P3H4 (prolyl 3-hydroxylase family member 4 (inactive))	3	-2.52
31	MAFF (MAF bZIP transcription factor F)	1	-0.652
32	MAFF (MAF bZIP transcription factor F)	2	-0.856
33	MAFF (MAF bZIP transcription factor F)	3	0.185
34	DLX1 (distal-less homeobox 1)	1	1.92
35	DLX1 (distal-less homeobox 1)	2	-0.728
36	DLX1 (distal-less homeobox 1)	3	0.444

Ordered by “total luciferase, z-score” (high to low): some entries from above
target	reagent no.	total luciferase, z-score
SPC25 (SPC25 component of NDC80 kinetochore complex)	3	0.304
C18orf54 (chromosome 18 open reading frame 54)	1	0.0706
C18orf54 (chromosome 18 open reading frame 54)	3	-0.146
SPC25 (SPC25 component of NDC80 kinetochore complex)	2	-0.241
ODAD2 (outer dynein arm docking complex subunit 2)	2	-0.475
ODAD2 (outer dynein arm docking complex subunit 2)	1	-0.522
C18orf54 (chromosome 18 open reading frame 54)	2	-0.557
ODAD2 (outer dynein arm docking complex subunit 2)	3	-0.654
SPC25 (SPC25 component of NDC80 kinetochore complex)	1	-1.19

Continued.
no.	target	reagent no.	total luciferase, z-score
37	H2BC7 (H2B clustered histone 7)	1	-0.826
38	H2BC7 (H2B clustered histone 7)	2	-0.641
39	H2BC7 (H2B clustered histone 7)	3	0.394
40	TMEM260 (transmembrane protein 260)	1	-0.886
41	TMEM260 (transmembrane protein 260)	2	1.63
42	TMEM260 (transmembrane protein 260)	3	-0.13
43	SMIM34 (small integral membrane protein 34)	1	-0.437
44	SMIM34 (small integral membrane protein 34)	2	-0.226
45	SMIM34 (small integral membrane protein 34)	3	-0.136
46	FAM76B (family with sequence similarity 76 member B)	1	1.23
47	FAM76B (family with sequence similarity 76 member B)	2	-0.372
48	FAM76B (family with sequence similarity 76 member B)	3	-0.712
49	TMEM50A (transmembrane protein 50A)	1	-2.84
50	TMEM50A (transmembrane protein 50A)	2	0.381
51	TMEM50A (transmembrane protein 50A)	3	-0.00728
52	EML4 (EMAP like 4)	1	1.03
53	EML4 (EMAP like 4)	2	-0.706
54	EML4 (EMAP like 4)	3	-0.088
55	CDH12 (cadherin 12)	1	-0.656
56	CDH12 (cadherin 12)	2	0.493
57	CDH12 (cadherin 12)	3	-1.52
